Structures can show the parent of a compound that is named as a salt. ± gives the standard deviation of the averaged measurements. Some of the results follow. Values are raw readings; no control value is given beside them.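 HeLa cells imaged for ribosome-assembly readouts (ENP1 staining with or without export block, or inducible tagged ribosomal protein reporters); machine learning classified each cell's signal location against solvent (DMSO) controls. Hits exceeded the DMSO false-positive mean by five standard deviations, then were visually confirmed; three biological replicates.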

Experimental findings from the supplement of paper PMC12542422 are described below.

The test system of test [1] is HeLa K (ENP1 immunofluorescence, +LMB). Nature of the test: fraction of cells with nucleolar or nucleolar/nucleoplasmic ENP1 signal (MainHitrate); higher = more cells with nucleolar/nuclear readout signal (for ENP1 -LMB: less RNAPI inhibition; for +LMB ENP1 and RP reporters: stronger nuclear/nucleolar retention, i.e. ribosome biogenesis defect). Conditions: concentration: 1 µM; treatment time: 6 h; ENP1 +LMB; leptomycin B: 20 nM, last 1.5 h.

The test system of test [2] is HeLa K (ENP1 immunofluorescence, no LMB). The test is described as above. Conditions: concentration: 1 µM; treatment time: 6 h; ENP1 -LMB; leptomycin B: none.
Test [3] deals with HeLa RPS2-YFP reporter. In words: fraction of reporter-positive cells with nuclear (nucleolar or nucleolar/nucleoplasmic) RPS2-YFP (MainHitrate); higher = more cells with nucleolar/nuclear readout signal (for ENP1 -LMB: less RNAPI inhibition; for +LMB ENP1 and RP reporters: stronger nuclear/nucleolar retention, i.e. ribosome biogenesis defect). The following applies: concentration: 1 µM; treatment time: 6 h.

Test [4] relates to HeLa RPL29-GFP reporter. Nature of the test: fraction of reporter-positive cells with nuclear (nucleolar or nucleolar/nucleoplasmic) RPL29-GFP (MainHitrate); higher = more cells with nucleolar/nuclear readout signal (for ENP1 -LMB: less RNAPI inhibition; for +LMB ENP1 and RP reporters: stronger nuclear/nucleolar retention, i.e. ribosome biogenesis defect). Conditions: concentration: 1 µM; treatment time: 6 h.

As to `CCOC(=O)OC(C)OC1=C(C(=O)Nc2ccccn2)N(C)S(=O)(=O)c2ccccc21` (centres undefined) [Ampiroxicam], the values for the fraction in test [1] and in test [2] were 0.0817 ± 0.12 and 0.993 ± 0.012, respectively. The “fraction of reporter-positive cells with nuclear” value (shortened to “fraction … with nuclear”) in test [3] was 0.139 ± 0.1; in test [4], 0.202 ± 0.082.

On to `NS(=O)(=O)c1cc2c(cc1C(F)(F)F)NC(Cc1ccccc1)NS2(=O)=O` (centres undefined) [Bendroflumethiazide], for which the fraction turned out to be 0.103 ± 0.12 in test [1] and 0.998 ± 0.0035 in test [2]. Moreover, the figures for the “fraction … with nuclear” value in test [3] and in test [4] were 0.18 ± 0.17 and 0.283 ± 0.23, respectively.

Regarding `Cc1ncc([N+](=O)[O-])n1CC(C)O` (centres undefined) [Secnidazole (Flagentyl)], the fraction was 0.159 ± 0.25 in test [1] and 0.986 ± 0.024 in test [2]. For the same compound, the “fraction … with nuclear” value in test [3] is 0.109 ± 0.058; in test [4], 0.219 ± 0.081.

In the case of `CN(C)CCOC(c1ccccc1)c1ccccc1` [Diphenhydramine HCl (Benadryl)], the fraction stood at 0.0759 ± 0.1 in test [1] and 0.994 ± 0.011 in test [2]. For the same compound, the “fraction … with nuclear” value came out at 0.123 ± 0.062 in test [3] and 0.202 ± 0.054 in test [4].

Turning to `COC(=O)Nc1nc2cc([S+]([O-])c3ccccc3)ccc2[nH]1` (centres undefined) [Oxfendazole], the fraction is 0.106 ± 0.16 in test [1] and 0.99 ± 0.018 in test [2]. Further, the “fraction … with nuclear” value in test [3] was 0.0942 ± 0.083; in test [4], 0.24 ± 0.076.

In the case of `CN1CC(=O)NC1=N` [Creatinine], the fraction in test [1] stood at 0.0493 ± 0.057; in test [2] it was 0.989 ± 0.019. Further, the “fraction … with nuclear” value in test [3] is 0.0885 ± 0.081; in test [4], 0.245 ± 0.031.

Regarding `CN1CCN(c2c(F)cc3c(=O)c(C(=O)O)cn(CCF)c3c2F)CC1` [Fleroxacin (Quinodis)], the fraction was 0.0994 ± 0.15 in test [1] and 0.993 ± 0.012 in test [2]. Moreover, the “fraction … with nuclear” value in test [3] was 0.0802 ± 0.061; in test [4], 0.226 ± 0.044.

`Nc1nc(F)nc2c1ncn2[C@@H]1O[C@H](COP(=O)(O)O)[C@@H](O)[C@@H]1O` [Fludarabine Phosphate (Fludara)]: the values for the fraction in test [1] and in test [2] were 0.11 ± 0.087 and 0.9983 ± 0.003, respectively. Moreover, the results for the “fraction … with nuclear” value in test [3] and in test [4] were 0.107 ± 0.048 and 0.191 ± 0.072, respectively.

As to `CC1(C)S[C@@H]2[C@H](NC(=O)[C@H](N)c3ccc(O)cc3)C(=O)N2[C@H]1C(=O)O` [Amoxicillin (Amoxycillin)], the fraction in test [1] was determined as 0.0998 ± 0.14; in test [2] it was 0.992 ± 0.013. In addition, the “fraction … with nuclear” value came out at 0.109 ± 0.084 in test [3] and 0.223 ± 0.064 in test [4].

Regarding `CS(=O)(=O)CCNCc1ccc(-c2ccc3ncnc(Nc4ccc(OCc5cccc(F)c5)c(Cl)c4)c3c2)o1` [Lapatinib Ditosylate (Tykerb)], the fraction in test [1] was determined as 0.0744 ± 0.055; in test [2], 0.998 ± 0.0034. The “fraction … with nuclear” value in test [3] was determined as 0.126 ± 0.1; in test [4] it was 0.187 ± 0.058.

On to `NCCCC(O)(P(=O)(O)O)P(=O)(O)O` [Alendronate (Fosamax)], for which the fraction in test [1] is 0.165 ± 0.14; in test [2], 0.9973 ± 0.0047. For the same compound, the “fraction … with nuclear” value in test [3] was determined as 0.0973 ± 0.057; in test [4], 0.204 ± 0.061.

In the case of `CO[C@H]1O[C@@H]2O[C@@]3(C)CC[C@H]4[C@H](C)CC[C@@H]([C@H]1C)[C@@]24OO3` [Artemether (SM-224)], the fraction came to 0.164 ± 0.24 in test [1] and 0.985 ± 0.026 in test [2]. In addition, the “fraction … with nuclear” value in test [3] amounted to 0.12 ± 0.082; in test [4], 0.208 ± 0.078.

Turning to `CC1(C)[C@@H](OC(=O)CCC(=O)O)CC[C@]2(C)[C@H]3C(=O)C=C4[C@@H]5C[C@@](C)(C(=O)O)CC[C@]5(C)CC[C@@]4(C)[C@]3(C)CC[C@@H]12` [Carbenoxolone Sodium], the fraction in test [1] was 0.174 ± 0.21; in test [2] it was 0.9968 ± 0.0056. Moreover, the “fraction … with nuclear” value in test [3] was found to be 0.177 ± 0.17; in test [4], 0.288 ± 0.24.

On to `CO[C@@H]1[C@@H](OC(N)=O)[C@@H](O)[C@H](Oc2ccc3c(O)c(NC(=O)c4ccc(O)c(CC=C(C)C)c4)c(=O)oc3c2C)OC1(C)C` [Novobiocin sodium (Albamycin)], for which the values for the fraction in test [1] and in test [2] were 0.0961 ± 0.13 and 0.994 ± 0.011, respectively. The entries for the “fraction … with nuclear” value in test [3] and in test [4] were 0.103 ± 0.091 and 0.265 ± 0.067, respectively.

Consider `CCN(CC)C(=O)C1(c2ccccc2)CC1CN` (centres undefined) [Milnacipran HCl], for which the fraction in test [1] turned out to be 0.0501 ± 0.054; in test [2], 0.985 ± 0.026. Moreover, the entries for the “fraction … with nuclear” value in test [3] and in test [4] were 0.104 ± 0.099 and 0.247 ± 0.084, respectively.

With `Cc1ccnc(NS(=O)(=O)c2ccc(N)cc2)n1` [Sulfamerazine], the fraction in test [1] turned out to be 0.068 ± 0.07; in test [2], 0.985 ± 0.026. Also, the figures for the “fraction … with nuclear” value in test [3] and in test [4] were 0.101 ± 0.079 and 0.215 ± 0.067, respectively.

As for `NC(=O)Cc1cccc(C(=O)c2ccccc2)c1N` [Nepafenac], the fraction in test [1] was 0.0884 ± 0.089; in test [2] it was 0.9983 ± 0.003. The “fraction … with nuclear” value in test [3] worked out at 0.114 ± 0.055; in test [4] it was 0.195 ± 0.076.

Regarding `CN(Cc1ccc(C(C)(C)C)cc1)Cc1cccc2ccccc12` [Butenafine HCl], the fraction worked out at 0.0538 ± 0.064 in test [1] and 0.979 ± 0.035 in test [2]. The figures for the “fraction … with nuclear” value in test [3] and in test [4] were 0.123 ± 0.098 and 0.224 ± 0.073, respectively.

For `NC(=O)N1c2ccccc2C=Cc2ccccc21` [Carbamazepine (Carbatrol)], the fraction in test [1] amounted to 0.0629 ± 0.043; in test [2], 0.998 ± 0.0034. The “fraction … with nuclear” value in test [3] is 0.106 ± 0.092; in test [4], 0.225 ± 0.049.

As to `CO[C@H]1C[C@@H]2CC[C@@H](C)[C@@](O)(O2)C(=O)C(=O)N2CCCC[C@H]2C(=O)O[C@H]([C@H](C)C[C@@H]2CC[C@@H](OCCO)[C@H](OC)C2)CC(=O)[C@H](C)/C=C(\C)[C@@H](O)[C@@H](OC)C(=O)[C@H](C)C[C@H](C)/C=C/C=C/C=C/1C` [Everolimus (RAD001)], the fraction in test [1] amounted to 0.17 ± 0.11; in test [2], 0.998 ± 0.0034. The “fraction … with nuclear” value came out at 0.257 ± 0.19 in test [3] and 0.331 ± 0.13 in test [4].

Consider `O=C1[C@@H]2[C@H]3CC[C@H](C3)[C@@H]2C(=O)N1C[C@@H]1CCCC[C@H]1CN1CCN(c2nsc3ccccc23)CC1` [Lurasidone HCl], for which the fraction in test [1] worked out at 0.103 ± 0.14; in test [2], 0.984 ± 0.027. The “fraction … with nuclear” value in test [3] was determined as 0.143 ± 0.1; in test [4], 0.207 ± 0.059.

Consider `C=C1CC[C@H](O)C/C1=C/C=C1\CCC[C@]2(C)[C@@H]([C@H](C)CCCC(C)C)CC[C@@H]12` [Vitamin D3 (Cholecalciferol)], for which the values for the fraction in test [1] and in test [2] were 0.0452 ± 0.044 and 0.978 ± 0.038, respectively. The “fraction … with nuclear” value turned out to be 0.1 ± 0.1 in test [3] and 0.203 ± 0.08 in test [4].

In the case of `Cc1ccc(S(=O)(=O)NC(=O)NN2CC3CCCC3C2)cc1` (centres undefined) [Gliclazide (Diamicron)], the fraction was 0.148 ± 0.21 in test [1] and 0.992 ± 0.013 in test [2]. Also, the “fraction … with nuclear” value was determined as 0.125 ± 0.088 in test [3] and 0.206 ± 0.075 in test [4].

As for `c1ccc(-c2ccc(C(c3ccccc3)n3ccnc3)cc2)cc1` (centres undefined) [Bifonazole], the results for the fraction in test [1] and in test [2] were 0.112 ± 0.15 and 0.99 ± 0.017, respectively. Also, the “fraction … with nuclear” value in test [3] was 0.0977 ± 0.071; in test [4] it was 0.241 ± 0.075.

With `C[C@]12CC[C@@H]3c4ccc(O)cc4C[C@@H](CCCCCCCCC[S+]([O-])CCCC(F)(F)C(F)(F)F)[C@H]3[C@@H]1CC[C@@H]2O` (some centres undefined) [Fulvestrant (Faslodex)], the fraction came out at 0.0679 ± 0.061 in test [1] and 0.9972 ± 0.0049 in test [2]. Besides, the figures for the “fraction … with nuclear” value in test [3] and in test [4] were 0.111 ± 0.077 and 0.206 ± 0.073, respectively.

In the case of `N#CC(c1ccc(Cl)cc1)c1c(Cl)cc(-n2ncc(=O)[nH]c2=O)cc1Cl` (centres undefined) [Diclazuril], the fraction in test [1] worked out at 0.0833 ± 0.096; in test [2], 0.9946 ± 0.0094. In addition, the “fraction … with nuclear” value in test [3] was determined as 0.111 ± 0.046; in test [4], 0.211 ± 0.029.
